# Measured values taken from article PMC12040169 (PLOS Biology, 2025).
# The other results are listed elsewhere or left out.
# System: T1, CTL2-GFP (C. trachomatis L2/434/Bu, GFP-expressing)
# T1 construct: L2/434/Bu, GFP-expressing
# Set-up: species or system HeLa; Intracellular C. trachomatis growth in HeLa cells, bulk GFP fluorescence relative to DMSO
# Settings: bulk GFP, single well; 28.5 h, 10 µM; inhibitor
row,SMILES,% of control remaining [%]
1,Cc1oc(C(C)(C)C)cc1C(=O)NCCNc1c(Cl)cccc1[N+](=O)[O-] [CBK265032],110.393
2,CCCCNC(=S)N1CC[C@@H]2CN(C)C[C@]2(c2ccc(OC)c(OC)c2)C1 [CBK075101T],109.275
3,c1ccc2c(c1)OCC(COc1nccnc1OC1CCNCC1)O2 (stereo not shown) [CBK070766T],189.022
4,NC1CCN(C(=O)Cn2c3ccccc3c(=O)c3ccccc32)C1 (stereo not shown) [CBK304300C],92.2967
5,COc1cc(Nc2nc(-c3c(OC)cccc3OC)cn3ccnc23)cc(OC)c1OC [CBK037395],97.7388
6,CC(NC(=O)c1cccc(Oc2ccccc2)c1)c1ccncc1 (stereo not shown) [CBK270327],119.948
7,Cc1ccc(C(NC(=O)Cn2ccnc2)c2ccncc2)cc1C (stereo not shown) [CBK281591],118.8
8,O=C(CCc1cc(F)ccc1F)NCCCn1nc2n(c1=O)CCCC2 [CBK305782],132.885
9,Cc1nnc(SCC(=O)NNC(=O)c2cccs2)[nH]1 [CBK266879],153.911
10,CC(C)Nc1cc(SCc2ccc(Cl)c(Cl)c2)ncn1 [CBK103665],99.3911
11,CCOc1c(Br)cc(CNc2nc[nH]n2)cc1OC [CBK268009],106.143
12,c1ccc(-c2ccccc2CN2CCN(c3nccnc3OCCN3CCOCC3)CC2)cc1 [CBK082893T],118.212
13,O=C(O)CNC(=O)CCS(=O)(=O)c1ccc(F)cc1 [CBK286580],133.292
14,CCn1c(SCc2nc(-c3ccc(Br)cc3)no2)nnc1-c1c[nH]c2ccccc12 [CBK268668],161.196
15,Cc1ccc(S(=O)(=O)Nc2sccc2C(=O)N2CCN(C)CC2)cc1 [CBK042264],135.665
16,Cc1ccc2[nH]c(-c3cccc(NC(=O)c4cccc(CN5CCCC5=O)c4)c3)nc2c1 [CBK285838],41.1916
17,Cc1cc(C)cc(C(O)CNC2CCN(Cc3cscn3)CC2)c1 (stereo not shown) [CBK304457],152.578
18,COc1cc2c3c(cccc3c1)CC(C)(N(C)C)C2 (stereo not shown) [CBK024357C],119.53
19,CCCNC(=O)Cn1c(=O)n(Cc2cccs2)c2ncccc21 [CBK283843],102.205
20,O=C(NC1CCNC1)c1cccc(S(=O)(=O)NCc2ccsc2)c1 (stereo not shown) [CBK306706],108.781
21,Cc1cc(C(=O)N2CCN(c3ncccn3)CC2)n[nH]1 [CBK144526],126.014
22,NS(=O)(=O)c1ccccc1Sc1ccccc1 [CBK020524],112.081
23,Cc1nc(N)c(CNC2CCCCC2)c(O)n1 [CBK019809],105.806
24,NS(=O)(=O)c1ccc(Cl)c(Cl)c1 [CBK015652],120.838
25,CCCn1c(=O)c(Cc2ccccc2)c(O)c2ccccc21 [CBK291175],133.867
26,Cn1cc(-c2ccccc2CN2CCCC2)c2onc(-c3ccccc3)c2c1=O [CBK036319C],125.65
27,O=C(NC1CC1)c1nn(-c2ncccn2)c2ccccc12 [CBK048508],100

# Reprinted at random: 4 compounds from above, in no set order.
row,SMILES,% of control remaining [%]
4,NC1CCN(C(=O)Cn2c3ccccc3c(=O)c3ccccc32)C1 (stereo not shown) [CBK304300C],92.2967
27,O=C(NC1CC1)c1nn(-c2ncccn2)c2ccccc12 [CBK048508],100
13,O=C(O)CNC(=O)CCS(=O)(=O)c1ccc(F)cc1 [CBK286580],133.292
7,Cc1ccc(C(NC(=O)Cn2ccnc2)c2ccncc2)cc1C (stereo not shown) [CBK281591],118.8

# (list continues)

row,SMILES,% of control remaining [%]
1,CC(C)C(NC(=O)C(C)(C)Oc1ccc(Cl)cc1)C(=O)O (stereo not shown) [CBK266138],150.252
2,CN(C)c1cccc(Nc2ccc(-c3ccc(CCC(=O)O)cc3)cn2)c1 [CBK036918],184.619
3,N#CCCn1cc(C(=O)N2CCOCC2)c(-c2cc3ccccc3o2)n1 [CBK306203],96.1981
4,COc1cc(-c2ccc(C(=O)N(C)CCN(C)C)c(N(C)C)n2)cc(OC)c1OC [CBK106076],103
5,CS(=O)(=O)N1CCc2cc(S(=O)(=O)N3CCN(c4ccc([N+](=O)[O-])c(NCc5ccccc5)c4)CC3)ccc21 [CBK268311],121.94
6,CC(=O)Nc1ccc(CCOc2nccnc2-c2ccccc2)cc1 [CBK106683],110.7
7,CCCCC1CCC(C(=O)Nc2ncccn2)CC1 (stereo not shown) [CBK027423],127.884
8,Cn1ccnc1C1(O)CCN(C(=O)c2ccc(F)cc2F)CC1 [CBK283552],77.0864
9,COc1cc(C)c(Nc2cccc(-c3ccsc3)n2)cc1OC [CBK037025],77.8019
10,COc1cc(C(=O)N2CCCC3(CCN(C(=O)c4cc(F)c(F)cc4F)C3)C2)cc(OC)c1OC (stereo not shown) [CBK131563],111.92
11,COc1cc(C(=O)NCC(=O)O)cc(Cl)c1OCC(C)C [CBK297485],138.139
12,Nc1nonc1C(=O)NCCNc1ccc([N+](=O)[O-])cn1 [CBK268279],129.326
13,COCCSc1ccccc1C(=O)Nc1ccc(S(N)(=O)=O)cc1 [CBK267530],135.698
14,CC(C)(CO)Cn1c(=O)[nH]c2ncc(-c3cccnc3)nc21 [CBK064697],156.212
15,CC(C)(C)NC(=O)Cn1cncc1-c1[nH]c2ccccc2c1Cl [CBK281981],113.408
16,Cc1cc(N2CCN(C(=O)CCc3nccs3)CC2)nc(C(C)C)n1 [CBK304778],114.824
17,Cc1nc2c(C(=O)NCCNC(=O)c3cccnc3)ncn2c(C)c1Cc1ccc(F)c(Cl)c1 [CBK169332],167.943
18,O=C(Nc1ccc(F)c(C(F)(F)F)c1)c1cncc(-c2ccc(C(=O)N3CCOCC3)cc2)c1 [CBK160216],116.386
19,c1ccc(Cn2ccc3c(N4CCNCC4)nccc32)cc1 [CBK051672C],126.824
20,CC(C)(C)OC(=O)N1CCC2(CC1)N=C(c1ccccc1)C(=S)N2 [CBK288478],118.176
21,CCOc1cc(-c2nc3sc(CC)cc3c(=O)[nH]2)ccc1OCC(=O)O [CBK298291],106.031
22,Cc1c(C(=O)N2CCC(c3ccncc3)CC2)oc2ccccc12 [CBK282413],96.7336
23,CN1CCC(N2CCN(C(=O)NCc3ccc4c(c3)OCO4)CC2)CC1 [CBK155885],100
24,Cc1ccc(S(=O)(=O)N(CCO)CC2CC2)c(Cl)c1 [CBK304885],128.258
25,O=C(CCCN1C(=O)c2cccc3cccc(c23)C1=O)N1CCN(Cc2ccc3c(c2)OCO3)CC1 [CBK074370],119.191
26,O=C1CN(C(=O)Nc2ccccc2Cl)CCN1 [CBK155862],102.88
27,CCCCOc1ccc(-c2ccc(C#N)cc2)cc1 [CBK056958],137.113

# Grouped by structure: those above containing bromine.
row,SMILES,% of control remaining [%]
11,CCOc1c(Br)cc(CNc2nc[nH]n2)cc1OC [CBK268009],106.143
14,CCn1c(SCc2nc(-c3ccc(Br)cc3)no2)nnc1-c1c[nH]c2ccccc12 [CBK268668],161.196

# Following part

row,SMILES,% of control remaining [%]
1,Cc1ccc(OC(=O)CCC(=O)Nc2ccc(S(N)(=O)=O)cc2)cc1 [CBK264708],112.17
2,CC1c2ccsc2CCN1S(C)(=O)=O (stereo not shown) [CBK023574],141.217
3,O=C(N[C@H]1CCN2C(=O)c3cc(-c4cccs4)ccc3NC(=O)[C@H]12)c1cccs1 [CBK289336],105.233
4,Cc1nc(-c2cccnc2)[nH]c(=O)c1CC(=O)N1CCN(C)CC1C (stereo not shown) [CBK304950],133.817
5,COc1ccc(-c2c3c(nc4sc(C#N)c(N)c24)CCCC3)cc1 [CBK270279],117.556
6,COCCN1CCN(c2nc(-c3ccncc3)nc3c2CCC3)CC1 [CBK306101],147.013
7,O=S(=O)(Nc1ncccn1)c1ccc(NC(=S)Nc2ccc3c(c2)OCO3)cc1 [CBK267046],23.7167
8,O=C(NCCn1c(C(F)(F)F)cc(=O)c2cccc(F)c21)C1CC1 [CBK284807],163.635
9,CCOC(=O)Cc1csc(NS(=O)(=O)c2cc(C)c(Cl)cc2Cl)n1 [CBK012872],107.504
10,COc1ccc(Cl)cc1S(=O)(=O)N1CCC(C(=O)O)CC1 [CBK269607],157.786
11,CC1=C[C@@H](CNC(=O)NC2CCCCC2)[C@H](C(C)C)C[C@H]1CC(=O)O [CBK289211],144.783
12,O=c1[nH]c2ncc(-c3ccco3)nc2n1Cc1cccs1 [CBK064438],164.298
13,CC(=O)Nc1cccc(-c2cncc(NCc3ccco3)n2)c1 [CBK065290],149.501
14,Cc1ccc(S(=O)(=O)Nc2ccccc2-c2nc3ccccc3c(=O)o2)cc1 [CBK087613],119.79
15,CN(C)CCN(C)c1nc(-c2ccc(Oc3ccccc3)cc2)cn2ccnc12 [CBK066469],200.38
16,O=C(O)CC(c1ccncc1)c1c[nH]c2ccccc12 (stereo not shown) [CBK286913],129.729
17,O=[N+]([O-])c1ccc(N/N=C/c2cnn(-c3ccccc3)c2)cc1 [CBK018746],82.0579
18,CCCC1(C)NC(=O)N(Cc2coc(-c3cccs3)n2)C1=O (stereo not shown) [CBK305594],150.967
19,Nc1nc2c(s1)c(=O)[nH]c(=O)n2-c1ccc(Cl)cc1 [CBK269891],154.883
20,O=C(NCCN1CCCCC1)C1CC(=O)N(Cc2ccco2)C1 (stereo not shown) [CBK304877],129.152
21,O=C(/C=C/c1cccnc1)Nc1cccc(N2CCNCC2)c1 [CBK034128T],88.8375
22,O=C(CCCCCN1C(=O)c2ccccc2C1=O)Nc1cccc(C(=O)O)c1 [CBK287261],163.98
23,Cc1cc(N2CCCC(COc3ccccc3F)C2)nc(N)n1 (stereo not shown) [CBK306714],52.8353
24,O=C(CN1CCc2c([nH]c3ccccc23)C12CCN(Cc1ccc(F)cc1)C2)Nc1ccccc1 (stereo not shown) [CBK059450],102.101
25,CS(=O)(=O)c1ccc(-n2cc(CN3CCC(Sc4ccccc4)CC3)nn2)cc1 [CBK149468],108.694
